Results are given in words; binding and its absence hold for the method and conditions named. For part of these data: In cells and extracts the contact can be indirect. Some entries that bind do so weakly or less than the wild type. One block for each substance: values may come before it.
Columns and labels:
Myc-STAT3 = Myc-STAT3 (UniProt P42227); assay: co-IP; Myc-STAT3 transiently expressed in 293T cells stably overexpressing FLAG-Becn1 (FL, ΔECD or ΔCCD); anti-c-Myc magnetic beads, 4°C overnight; immunoblot
FLAG-STAT3 = FLAG-STAT3 (UniProt P42227); assay: pull-down; FLAG-STAT3 from 293T cells adsorbed onto anti-FLAG G1 affinity resin, incubated overnight with purified His-Becn1; washed in 1x TBS; FLAG vector as control; both purified
[1] = target: Beclin 1 (Becn1), endogenous in E14.5 fetal liver cells (mouse (endogenous in E14.5 fetal liver cells)) (UniProt O88597); assay: co-IP; endogenous proteins; lysate of E14.5 fetal liver cells incubated with anti-Becn1, protein A/G agarose; immunoblot with anti-STAT3 and anti-Becn1

Protein sequences, listed by entry. Tags and fused reporters are not part of them.
UniProt P42227: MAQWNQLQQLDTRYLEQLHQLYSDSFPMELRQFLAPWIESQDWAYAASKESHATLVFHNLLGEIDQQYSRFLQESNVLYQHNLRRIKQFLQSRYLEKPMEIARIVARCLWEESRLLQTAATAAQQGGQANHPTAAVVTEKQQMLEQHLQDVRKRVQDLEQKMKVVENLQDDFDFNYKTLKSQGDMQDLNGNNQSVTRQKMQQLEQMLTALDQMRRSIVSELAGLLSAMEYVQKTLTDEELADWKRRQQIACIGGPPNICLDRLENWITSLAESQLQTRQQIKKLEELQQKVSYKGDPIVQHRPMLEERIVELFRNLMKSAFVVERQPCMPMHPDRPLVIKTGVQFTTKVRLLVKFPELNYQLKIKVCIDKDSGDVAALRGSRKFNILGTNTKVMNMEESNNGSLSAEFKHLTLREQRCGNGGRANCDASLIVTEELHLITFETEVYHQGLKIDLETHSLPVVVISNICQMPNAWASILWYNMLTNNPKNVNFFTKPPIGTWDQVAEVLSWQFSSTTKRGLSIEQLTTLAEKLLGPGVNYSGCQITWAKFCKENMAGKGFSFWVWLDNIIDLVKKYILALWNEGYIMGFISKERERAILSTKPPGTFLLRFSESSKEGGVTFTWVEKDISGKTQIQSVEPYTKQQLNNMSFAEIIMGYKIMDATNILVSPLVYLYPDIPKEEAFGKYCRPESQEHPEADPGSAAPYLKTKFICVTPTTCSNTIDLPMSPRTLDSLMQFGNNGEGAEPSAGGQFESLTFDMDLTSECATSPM
UniProt O88597: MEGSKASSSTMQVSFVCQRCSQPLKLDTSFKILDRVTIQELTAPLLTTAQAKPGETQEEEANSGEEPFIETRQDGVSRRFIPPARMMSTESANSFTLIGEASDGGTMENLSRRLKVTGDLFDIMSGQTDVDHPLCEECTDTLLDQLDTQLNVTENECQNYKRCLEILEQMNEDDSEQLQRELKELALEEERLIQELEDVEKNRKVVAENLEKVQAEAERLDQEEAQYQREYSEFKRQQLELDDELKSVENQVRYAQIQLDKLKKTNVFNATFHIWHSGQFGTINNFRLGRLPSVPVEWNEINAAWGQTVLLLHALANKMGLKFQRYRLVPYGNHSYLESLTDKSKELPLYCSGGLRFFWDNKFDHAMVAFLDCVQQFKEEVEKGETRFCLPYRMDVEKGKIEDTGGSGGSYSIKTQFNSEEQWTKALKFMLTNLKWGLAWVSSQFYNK

- binding (Myc-STAT3): binds
Substance: FLAG-Becn1 (FL) (from UniProt O88597 1-448)

- binding (FLAG-STAT3): binds
Substance: His-tagged mouse Becn1 protein (from UniProt O88597 1-448)

- binding [1]: binds
Substance: STAT3, endogenous in E14.5 fetal liver cells (from UniProt P42227 1-770)
